Laboratory results published in PubChem BioAssay AID330 (DTP/NCI, 2004).
The list shows only some results of the screen, not a fair sample: it gathers tests that were run many times, whatever their T/C, doses with no T/C, and many T/C values between a quarter and a half above the control. Other doses and runs of a compound stand elsewhere. T/C: endpoint of the treated group in % of that of the vehicle group. Some entries give survivors of the animals treated and no T/C: the source holds a T/C of zero for them, seemingly a mark for toxic or unscored doses. Some doses without a T/C left all or most animals alive at the check, yet need not have been tolerated: survival well below the control is almost never listed, so the zero probably covers shortened survival too. Survivors were counted at the toxicity check, usually on the fifth day, unless a day is given; later deaths do not show. Schedules are NCI's codes, read here as Q, the interval in days (D) or hours (H), X, the number of doses. Some molecules as drawn cover several salts, stereoisomers or complexes of the source; a dose is that of the sample tested. Additions like (4×) stand for listed records that agree. Where survival is the endpoint, this PubChem deposit counts one and a half times the control or more as active, and values a quarter to a half above the control carry no call in these data; other NCI protocols may use other cut-offs. Some entries hold several experiments; their values stand side by side, smallest first. Some T/C values are followed by the survivors on the day toxicity was checked, most often the fifth; without a count, all were alive then.

Test system: P388 leukemia ip, CD2F1 mice, survival T/C
Assay: NCI In Vivo Anticancer Drug Screen. Data for tumor model P388 Leukemia (intraperitoneal) in CD2F1 (CDF1) mice
Conditions: T/C endpoint: median survival time, higher T/C = longer survival
[1] = dose: 100.0 mg/kg/injection, schedule: Q01DX005 (ip), vehicle: saline
[2] = dose: 400.0 mg/kg/injection, schedule: Q04DX003 (ip), vehicle: saline with Tween-80
[3] = dose: 77.0 mg/kg/injection, schedule: Q01DX005 (ip), vehicle: saline
[4] = dose: 240.0 mg/kg/injection, schedule: Q01DX005 (ip), vehicle: saline with Tween-80
[5] = dose: 50.0 mg/kg/injection, schedule: Q01DX009 (ip), vehicle: saline with Tween-80
[6] = dose: 100.0 mg/kg/injection, schedule: Q01DX009 (ip), vehicle: saline with Tween-80
[7] = dose: 200.0 mg/kg/injection, schedule: Q01DX009 (ip), vehicle: saline

## COc1ccc(C2=CC3CCC(C2)N3C)cc1 (centres undefined)
dose: 50.0 mg/kg/injection, schedule: Q01DX005 (ip), vehicle: Klucel (hydroxypropylcellulose) (HPC)
  survivor count: 3 of 6
dose: 100.0 mg/kg/injection, schedule: Q01DX005 (ip), vehicle: Klucel (hydroxypropylcellulose) (HPC)
  survivor count: 0 of 6
[1]
  survivor count: 0 of 6
dose: 200.0 mg/kg/injection, schedule: Q01DX005 (ip), vehicle: Klucel (hydroxypropylcellulose) (HPC)
  survivor count: 0 of 6

## CCC(c1ccc(O)cc1)C(CC)c1ccc(OC)cc1 (centres undefined)
[2]
  survivor count: 6 of 6

## CCCCCCCCC(Cn1ccnc1)c1ccc(F)cc1 (centres undefined)
dose: 200.0 mg/kg/injection, schedule: Q04DX003 (ip), vehicle: saline with Tween-80
  survivor count: 5 of 6
[2]
  survivor count: 0 of 6

## CC1CN1P(=O)(N1CCCC1)N1CC1C (centres undefined)
dose: 10.0 mg/kg/injection, schedule: Q01DX009 (ip), vehicle: saline
  T/C: 130 % of control
dose: 15.0 mg/kg/injection, schedule: Q01DX009 (ip), vehicle: saline
  T/C: 143 % of control
dose: 44.0 mg/kg/injection, schedule: Q04DX003 (ip), vehicle: saline
  T/C: 137 % of control
dose: 50.0 mg/kg/injection, schedule: Q01DX009 (ip), vehicle: saline
  T/C: 131 % of control
dose: 50.0 mg/kg/injection, schedule: Q04DX003 (ip), vehicle: saline
  T/C: 145 % of control
dose: 150.0 mg/kg/injection, schedule: Q04DX003 (ip), vehicle: saline
  survivor count: 6 of 6

## O=C(N/N=C/c1cc(Br)cc(Br)c1[O-])c1ccccc1.O=C(N/N=C/c1cc(Br)cc(Br)c1[O-])c1ccccc1.[Co+2]
dose: 200.0 mg/kg/injection, schedule: Q01DX001 (ip), vehicle: saline with Tween-80
  survivor count: 6 of 6
dose: 400.0 mg/kg/injection, schedule: Q01DX001 (ip), vehicle: saline with Tween-80
  survivor count: 6 of 6

## CC/C(=N/NS(=O)(=O)c1ccc(C)cc1)c1ccc(C(C)(C)C)cc1
dose: 100.0 mg/kg/injection, schedule: Q01DX009 (ip), vehicle: saline
  survivor count: 6 of 6

## Cc1ccc2nc(N(C)C)[nH]c2c1
dose: 200.0 mg/kg/injection, schedule: Q01DX005 (ip), vehicle: other
  survivor count: 0 of 6

## CNC(=O)OCc1nc(SC)n(C)c1COC(=O)NC
dose: 6.25 mg/kg/injection, schedule: Q01DX005 (ip), vehicle: saline
  T/C: 125 % of control [5 of 6 alive]
dose: 12.5 mg/kg/injection, schedule: Q01DX005 (ip), vehicle: saline
  T/C: 144 and 147 % of control
dose: 25.0 mg/kg/injection, schedule: Q01DX005 (ip), vehicle: saline
  T/C: 147 % of control
dose: 40.0 mg/kg/injection, schedule: Q01DX005 (ip), vehicle: saline, evaluated on day 45
  T/C: 170 and 186 % of control
dose: 40.0 mg/kg/injection, schedule: Q01DX005 (ip), vehicle: saline, evaluated on day 46
  T/C: 166 % of control
dose: 40.0 mg/kg/injection, schedule: Q01DX005 (ip), vehicle: saline, evaluated on day 47
  T/C: 169, 192, 217 % of control
dose: 40.0 mg/kg/injection, schedule: Q01DX005 (ip), vehicle: saline, evaluated on day 48
  T/C: 172 % of control
dose: 40.0 mg/kg/injection, schedule: Q01DX005 (ip), vehicle: saline, evaluated on day 60
  T/C: 197 % of control
dose: 50.0 mg/kg/injection, schedule: Q01DX005 (ip), vehicle: saline, evaluated on day 45
  T/C: 175 and 202 % of control
dose: 50.0 mg/kg/injection, schedule: Q01DX005 (ip), vehicle: saline, evaluated on day 46
  T/C: 191 % of control
dose: 50.0 mg/kg/injection, schedule: Q01DX005 (ip), vehicle: saline, evaluated on day 47
  T/C: 182 [9 of 10 alive], 195, 221 % of control
dose: 50.0 mg/kg/injection, schedule: Q01DX005 (ip), vehicle: saline, evaluated on day 48
  T/C: 187 % of control
dose: 50.0 mg/kg/injection, schedule: Q01DX005 (ip), vehicle: saline, evaluated on day 60
  T/C: 203 % of control
dose: 65.0 mg/kg/injection, schedule: Q01DX005 (ip), vehicle: saline, evaluated on day 45
  T/C: 193 and 217 % of control
dose: 65.0 mg/kg/injection, schedule: Q01DX005 (ip), vehicle: saline, evaluated on day 46
  T/C: 200 % of control
dose: 65.0 mg/kg/injection, schedule: Q01DX005 (ip), vehicle: saline, evaluated on day 47
  T/C: 198, 209, 221 % of control
dose: 65.0 mg/kg/injection, schedule: Q01DX005 (ip), vehicle: saline, evaluated on day 48
  T/C: 181 % of control
dose: 65.0 mg/kg/injection, schedule: Q01DX005 (ip), vehicle: saline, evaluated on day 60
  T/C: 231 % of control
[3]
  T/C: 132 % of control
  survivor count: 10 of 10
dose: 80.0 mg/kg/injection, schedule: Q01DX005 (ip), vehicle: saline, evaluated on day 45
  T/C: 126 and 205 % of control
dose: 80.0 mg/kg/injection, schedule: Q01DX005 (ip), vehicle: saline, evaluated on day 47
  T/C: 161 % of control
dose: 80.0 mg/kg/injection, schedule: Q01DX005 (ip), vehicle: saline, evaluated on day 60
  T/C: 213 % of control
dose: 80.0 mg/kg/injection, schedule: Q01DX005 (ip), vehicle: saline
  survivor count: 10 of 10 (3×)
[1]
  survivor count: 6 of 6
dose: 115.0 mg/kg/injection, schedule: Q01DX005 (ip), vehicle: saline
  survivor count: 10 of 10 (3×)
dose: 172.0 mg/kg/injection, schedule: Q01DX005 (ip), vehicle: saline
  survivor count: 9 of 10

## C=C1CCC(=O)NC1=O
dose: 100.0 mg/kg/injection, schedule: Q01DX005 (ip), vehicle: saline with Tween-80
  survivor count: 0 of 6
dose: 200.0 mg/kg/injection, schedule: Q01DX005 (ip), vehicle: saline with Tween-80
  survivor count: 0 of 6

## CCOC(=O)c1c(OC)c(-c2ccccc2)c(=O)n2c3ccccc3n(C)c12
[4]
  survivor count: 6 of 6

## Cc1cc(NS(=O)(=O)c2ccc(N=Nc3cc(N=Nc4ccc(S(=O)(=O)Nc5cc(C)nc(C)n5)cc4)c4c(NC(=O)C(Cl)Cl)cccc4c3OC(=O)C(Cl)Cl)cc2)nc(C)n1 (tested in a mixture with another compound)
dose: 12.5 mg/kg/injection, schedule: Q01DX009 (ip), vehicle: saline with Tween-80
  T/C: 135 % of control
dose: 25.0 mg/kg/injection, schedule: Q01DX009 (ip), vehicle: saline with Tween-80
  T/C: 133 % of control
[5]
  T/C: 131 % of control
[6]
  T/C: 135 % of control
  survivor count: 2 of 6
dose: 200.0 mg/kg/injection, schedule: Q01DX009 (ip), vehicle: saline with Tween-80
  survivor count: 3 of 6
[7]
  T/C: 131 [5 of 6 alive] and 132 % of control
  survivor count: 3 of 6
dose: 400.0 mg/kg/injection, schedule: Q01DX009 (ip), vehicle: saline with Tween-80
  survivor count: 1 of 6
dose: 400.0 mg/kg/injection, schedule: Q01DX009 (ip), vehicle: saline
  survivor count: 0 of 6

## Clc1ccc(C(CCc2ccc(Br)cc2)Cn2ccnc2)c(Cl)c1 (centres undefined)
[6]
  survivor count: 4 of 6

## CC(C)n1ncc2c(N)ncnc21
dose: 30.0 mg/kg/injection, schedule: Q01DX009 (ip), vehicle: saline
  survivor count: 6 of 6
dose: 60.0 mg/kg/injection, schedule: Q01DX009 (ip), vehicle: saline
  survivor count: 4 of 6

## N=c1ccn2c(n1)OC1C(O)C(COS(=O)OC3C(CO)OC4C3Oc3nc(=N)ccn34)OC12 (centres undefined)
[5]
  T/C: 131 % of control
[6]
  T/C: 140 % of control

## CCOSN1CCOCC1
dose: 200.0 mg/kg/injection, schedule: Q04DX002 (ip), vehicle: saline
  survivor count: 1 of 6
dose: 400.0 mg/kg/injection, schedule: Q04DX002 (ip), vehicle: saline
  survivor count: 1 of 6

## N/C(=N\Cl)C(Cl)(Cl)Cl
dose: 18.7 mg/kg/injection, schedule: Q01DX009 (ip), vehicle: saline
  T/C: 130 % of control
dose: 37.5 mg/kg/injection, schedule: Q01DX009 (ip), vehicle: saline
  T/C: 135 % of control
dose: 56.3 mg/kg/injection, schedule: Q01DX009 (ip), vehicle: saline
  survivor count: 3 of 6
dose: 75.0 mg/kg/injection, schedule: Q01DX009 (ip), vehicle: saline
  survivor count: 1 of 6

## O=C1OC(OC/C(Br)=C(/Br)COC2OC(=O)C(Cl)=C2Cl)C(Cl)=C1Cl (centres undefined)
[4]
  survivor count: 0 of 6
